# Assay results: PMC4421793, “A secretory kinase complex regulates extracellular protein phosphorylation” (eLife, 2015)
# The chains behind the UniProt entries cited, without tags or fusion partners. Residues count along the entry.
# UniProt Q5MJS3, residues 88-579: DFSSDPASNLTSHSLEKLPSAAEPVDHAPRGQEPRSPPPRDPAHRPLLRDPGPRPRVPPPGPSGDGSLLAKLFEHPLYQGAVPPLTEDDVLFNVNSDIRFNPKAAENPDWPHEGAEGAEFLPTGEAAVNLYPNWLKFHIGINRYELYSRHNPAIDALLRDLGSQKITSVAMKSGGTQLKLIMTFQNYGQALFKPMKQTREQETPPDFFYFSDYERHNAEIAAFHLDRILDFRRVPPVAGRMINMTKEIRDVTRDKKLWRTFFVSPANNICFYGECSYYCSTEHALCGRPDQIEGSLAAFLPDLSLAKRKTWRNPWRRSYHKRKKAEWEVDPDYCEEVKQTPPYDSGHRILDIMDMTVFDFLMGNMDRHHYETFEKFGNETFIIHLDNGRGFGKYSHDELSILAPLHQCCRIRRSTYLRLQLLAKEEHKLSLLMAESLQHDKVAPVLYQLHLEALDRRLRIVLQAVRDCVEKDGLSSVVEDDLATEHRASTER
# No constants are given. Whether binding was seen depends on the method and setting. Binding seen in cells or lysates may run through a third protein. Some entries that bind do so weakly or less than the wild type. For part of these data: Where a sequence is shown, tags or fusion partners need not be part of it.
# T1: V5-tagged Fam20A (Fam20A-V5), stably expressed in U2OS cells (human) (UniProt Q96MK3)
# T1 sequence: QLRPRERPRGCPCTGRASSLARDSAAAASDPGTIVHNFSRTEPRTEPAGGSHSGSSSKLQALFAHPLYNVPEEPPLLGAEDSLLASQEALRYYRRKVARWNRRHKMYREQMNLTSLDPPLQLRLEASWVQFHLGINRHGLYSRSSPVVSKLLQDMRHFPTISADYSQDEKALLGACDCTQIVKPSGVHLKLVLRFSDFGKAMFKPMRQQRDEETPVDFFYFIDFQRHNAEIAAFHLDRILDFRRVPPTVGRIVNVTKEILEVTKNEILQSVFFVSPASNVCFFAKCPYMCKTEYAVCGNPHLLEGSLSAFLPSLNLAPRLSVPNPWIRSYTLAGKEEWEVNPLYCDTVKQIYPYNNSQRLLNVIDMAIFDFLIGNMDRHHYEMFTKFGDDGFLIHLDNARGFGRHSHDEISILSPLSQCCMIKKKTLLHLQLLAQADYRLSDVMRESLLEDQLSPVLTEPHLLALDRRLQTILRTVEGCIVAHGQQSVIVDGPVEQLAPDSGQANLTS
# T2: V5-tagged Fam20B (Fam20B-V5), stably expressed in U2OS cells (human) (UniProt O75063)
# T2 sequence: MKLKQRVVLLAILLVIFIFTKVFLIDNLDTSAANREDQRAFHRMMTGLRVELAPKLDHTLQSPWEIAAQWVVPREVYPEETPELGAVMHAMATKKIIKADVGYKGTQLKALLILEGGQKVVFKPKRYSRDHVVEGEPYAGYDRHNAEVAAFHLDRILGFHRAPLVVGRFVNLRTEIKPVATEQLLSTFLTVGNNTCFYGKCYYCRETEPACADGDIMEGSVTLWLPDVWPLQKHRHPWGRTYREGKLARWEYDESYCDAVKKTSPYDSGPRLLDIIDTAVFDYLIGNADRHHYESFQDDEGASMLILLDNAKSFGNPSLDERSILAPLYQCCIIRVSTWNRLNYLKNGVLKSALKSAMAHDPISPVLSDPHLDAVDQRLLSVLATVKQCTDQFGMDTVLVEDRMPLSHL
# How the values were obtained:
# [1] = target: T1, V5-tagged Fam20A (Fam20A-V5), stably expressed in U2OS cells (human); test: co-IP; Flag- and V5-tagged proteins stably co-expressed in U2OS cells
# [2] = target: T2, V5-tagged Fam20B (Fam20B-V5), stably expressed in U2OS cells (human); test: as above
# [3] = target: endogenous Fam20C of the lactating mouse mammary gland (mouse (endogenous in C57BL/6 mammary gland)) (UniProt Q5MJS3); test: co-IP; endogenous proteins, ER/Golgi-enriched fraction of lactating mouse mammary gland, 100 mM NaCl and 1% Triton X-100 added; rabbit polyclonal anti-Fam20C for immunoprecipitation, normal rabbit IgG as control
binder,measurement,setting,value
"Flag-tagged Fam20A (Fam20A-Flag), stably expressed in U2OS cells (protein, UniProt Q96MK3 34-541) QLRPRERPRGCPCTGRASSLARDSAAAASDPGTIVHNFSRTEPRTEPAGGSHSGSSSKLQALFAHPLYNVPEEPPLLGAEDSLLASQEALRYYRRKVARWNRRHKMYREQMNLTSLDPPLQLRLEASWVQFHLGINRHGLYSRSSPVVSKLLQDMRHFPTISADYSQDEKALLGACDCTQIVKPSGVHLKLVLRFSDFGKAMFKPMRQQRDEETPVDFFYFIDFQRHNAEIAAFHLDRILDFRRVPPTVGRIVNVTKEILEVTKNEILQSVFFVSPASNVCFFAKCPYMCKTEYAVCGNPHLLEGSLSAFLPSLNLAPRLSVPNPWIRSYTLAGKEEWEVNPLYCDTVKQIYPYNNSQRLLNVIDMAIFDFLIGNMDRHHYEMFTKFGDDGFLIHLDNARGFGRHSHDEISILSPLSQCCMIKKKTLLHLQLLAQADYRLSDVMRESLLEDQLSPVLTEPHLLALDRRLQTILRTVEGCIVAHGQQSVIVDGPVEQLAPDSGQANLTS",binding,[1],binds
same,binding,[2],no binding
"endogenous Fam20A of the lactating mouse mammary gland (protein, UniProt Q8CID3 34-541) QLRPGERPAACPCSGRAPSASLHSAAASRDLGTASHNFSGALPRVEHPSRGHPAPRSKLQALFAHSLYQVLEDPPLLGPEDWLLASQEALRYYRRKVARWNRRHKIYKEQFNLTSLDPPLQFRPEASWVQFHLGINSHGLYSRSSLAISKLLHDMRHFPTISADYSQDEKALLGACDCSQIVKPSGVHLKLVLRFSDFGKAMFKPMRQQREEETPEDFFYFIDFQRHNAEIAAFHLDRILDFRRVPPTVGRLVNVTKEILEVTKNEILQSVFFVSPANNVCFFAKCPYMCKTEYAVCGNPHLLEGSLSAFLPSLNLAPRLSVPNPWIRSYSLSGKEEWELNPLYCDTVKQIYPYNSSNRLLGIIDMAVFDFLIGNMDRHHYEMFTKFGDDGYLIHLDNARGFGRHSQDEISILAPLAQCCMIKRKTLLHLQLLAQADYRLSDVMRESLLEDQLSPVLTEPHLLALDRRLQIILKTVEDCIEAHGERRVIAEGSAQRSAPDSGQANLTS",binding,[3],binds
